Results as given in patent publication US20220023384A1.
Results are given in words; binding and its absence hold for the method and conditions named. In cells and extracts the contact can be indirect. Some results given as binding are weak or reduced against the parent protein; the word gives no strength.

By UniProt entry, the sequences of proteins in these tests, tags left out.
UniProt E9Q401: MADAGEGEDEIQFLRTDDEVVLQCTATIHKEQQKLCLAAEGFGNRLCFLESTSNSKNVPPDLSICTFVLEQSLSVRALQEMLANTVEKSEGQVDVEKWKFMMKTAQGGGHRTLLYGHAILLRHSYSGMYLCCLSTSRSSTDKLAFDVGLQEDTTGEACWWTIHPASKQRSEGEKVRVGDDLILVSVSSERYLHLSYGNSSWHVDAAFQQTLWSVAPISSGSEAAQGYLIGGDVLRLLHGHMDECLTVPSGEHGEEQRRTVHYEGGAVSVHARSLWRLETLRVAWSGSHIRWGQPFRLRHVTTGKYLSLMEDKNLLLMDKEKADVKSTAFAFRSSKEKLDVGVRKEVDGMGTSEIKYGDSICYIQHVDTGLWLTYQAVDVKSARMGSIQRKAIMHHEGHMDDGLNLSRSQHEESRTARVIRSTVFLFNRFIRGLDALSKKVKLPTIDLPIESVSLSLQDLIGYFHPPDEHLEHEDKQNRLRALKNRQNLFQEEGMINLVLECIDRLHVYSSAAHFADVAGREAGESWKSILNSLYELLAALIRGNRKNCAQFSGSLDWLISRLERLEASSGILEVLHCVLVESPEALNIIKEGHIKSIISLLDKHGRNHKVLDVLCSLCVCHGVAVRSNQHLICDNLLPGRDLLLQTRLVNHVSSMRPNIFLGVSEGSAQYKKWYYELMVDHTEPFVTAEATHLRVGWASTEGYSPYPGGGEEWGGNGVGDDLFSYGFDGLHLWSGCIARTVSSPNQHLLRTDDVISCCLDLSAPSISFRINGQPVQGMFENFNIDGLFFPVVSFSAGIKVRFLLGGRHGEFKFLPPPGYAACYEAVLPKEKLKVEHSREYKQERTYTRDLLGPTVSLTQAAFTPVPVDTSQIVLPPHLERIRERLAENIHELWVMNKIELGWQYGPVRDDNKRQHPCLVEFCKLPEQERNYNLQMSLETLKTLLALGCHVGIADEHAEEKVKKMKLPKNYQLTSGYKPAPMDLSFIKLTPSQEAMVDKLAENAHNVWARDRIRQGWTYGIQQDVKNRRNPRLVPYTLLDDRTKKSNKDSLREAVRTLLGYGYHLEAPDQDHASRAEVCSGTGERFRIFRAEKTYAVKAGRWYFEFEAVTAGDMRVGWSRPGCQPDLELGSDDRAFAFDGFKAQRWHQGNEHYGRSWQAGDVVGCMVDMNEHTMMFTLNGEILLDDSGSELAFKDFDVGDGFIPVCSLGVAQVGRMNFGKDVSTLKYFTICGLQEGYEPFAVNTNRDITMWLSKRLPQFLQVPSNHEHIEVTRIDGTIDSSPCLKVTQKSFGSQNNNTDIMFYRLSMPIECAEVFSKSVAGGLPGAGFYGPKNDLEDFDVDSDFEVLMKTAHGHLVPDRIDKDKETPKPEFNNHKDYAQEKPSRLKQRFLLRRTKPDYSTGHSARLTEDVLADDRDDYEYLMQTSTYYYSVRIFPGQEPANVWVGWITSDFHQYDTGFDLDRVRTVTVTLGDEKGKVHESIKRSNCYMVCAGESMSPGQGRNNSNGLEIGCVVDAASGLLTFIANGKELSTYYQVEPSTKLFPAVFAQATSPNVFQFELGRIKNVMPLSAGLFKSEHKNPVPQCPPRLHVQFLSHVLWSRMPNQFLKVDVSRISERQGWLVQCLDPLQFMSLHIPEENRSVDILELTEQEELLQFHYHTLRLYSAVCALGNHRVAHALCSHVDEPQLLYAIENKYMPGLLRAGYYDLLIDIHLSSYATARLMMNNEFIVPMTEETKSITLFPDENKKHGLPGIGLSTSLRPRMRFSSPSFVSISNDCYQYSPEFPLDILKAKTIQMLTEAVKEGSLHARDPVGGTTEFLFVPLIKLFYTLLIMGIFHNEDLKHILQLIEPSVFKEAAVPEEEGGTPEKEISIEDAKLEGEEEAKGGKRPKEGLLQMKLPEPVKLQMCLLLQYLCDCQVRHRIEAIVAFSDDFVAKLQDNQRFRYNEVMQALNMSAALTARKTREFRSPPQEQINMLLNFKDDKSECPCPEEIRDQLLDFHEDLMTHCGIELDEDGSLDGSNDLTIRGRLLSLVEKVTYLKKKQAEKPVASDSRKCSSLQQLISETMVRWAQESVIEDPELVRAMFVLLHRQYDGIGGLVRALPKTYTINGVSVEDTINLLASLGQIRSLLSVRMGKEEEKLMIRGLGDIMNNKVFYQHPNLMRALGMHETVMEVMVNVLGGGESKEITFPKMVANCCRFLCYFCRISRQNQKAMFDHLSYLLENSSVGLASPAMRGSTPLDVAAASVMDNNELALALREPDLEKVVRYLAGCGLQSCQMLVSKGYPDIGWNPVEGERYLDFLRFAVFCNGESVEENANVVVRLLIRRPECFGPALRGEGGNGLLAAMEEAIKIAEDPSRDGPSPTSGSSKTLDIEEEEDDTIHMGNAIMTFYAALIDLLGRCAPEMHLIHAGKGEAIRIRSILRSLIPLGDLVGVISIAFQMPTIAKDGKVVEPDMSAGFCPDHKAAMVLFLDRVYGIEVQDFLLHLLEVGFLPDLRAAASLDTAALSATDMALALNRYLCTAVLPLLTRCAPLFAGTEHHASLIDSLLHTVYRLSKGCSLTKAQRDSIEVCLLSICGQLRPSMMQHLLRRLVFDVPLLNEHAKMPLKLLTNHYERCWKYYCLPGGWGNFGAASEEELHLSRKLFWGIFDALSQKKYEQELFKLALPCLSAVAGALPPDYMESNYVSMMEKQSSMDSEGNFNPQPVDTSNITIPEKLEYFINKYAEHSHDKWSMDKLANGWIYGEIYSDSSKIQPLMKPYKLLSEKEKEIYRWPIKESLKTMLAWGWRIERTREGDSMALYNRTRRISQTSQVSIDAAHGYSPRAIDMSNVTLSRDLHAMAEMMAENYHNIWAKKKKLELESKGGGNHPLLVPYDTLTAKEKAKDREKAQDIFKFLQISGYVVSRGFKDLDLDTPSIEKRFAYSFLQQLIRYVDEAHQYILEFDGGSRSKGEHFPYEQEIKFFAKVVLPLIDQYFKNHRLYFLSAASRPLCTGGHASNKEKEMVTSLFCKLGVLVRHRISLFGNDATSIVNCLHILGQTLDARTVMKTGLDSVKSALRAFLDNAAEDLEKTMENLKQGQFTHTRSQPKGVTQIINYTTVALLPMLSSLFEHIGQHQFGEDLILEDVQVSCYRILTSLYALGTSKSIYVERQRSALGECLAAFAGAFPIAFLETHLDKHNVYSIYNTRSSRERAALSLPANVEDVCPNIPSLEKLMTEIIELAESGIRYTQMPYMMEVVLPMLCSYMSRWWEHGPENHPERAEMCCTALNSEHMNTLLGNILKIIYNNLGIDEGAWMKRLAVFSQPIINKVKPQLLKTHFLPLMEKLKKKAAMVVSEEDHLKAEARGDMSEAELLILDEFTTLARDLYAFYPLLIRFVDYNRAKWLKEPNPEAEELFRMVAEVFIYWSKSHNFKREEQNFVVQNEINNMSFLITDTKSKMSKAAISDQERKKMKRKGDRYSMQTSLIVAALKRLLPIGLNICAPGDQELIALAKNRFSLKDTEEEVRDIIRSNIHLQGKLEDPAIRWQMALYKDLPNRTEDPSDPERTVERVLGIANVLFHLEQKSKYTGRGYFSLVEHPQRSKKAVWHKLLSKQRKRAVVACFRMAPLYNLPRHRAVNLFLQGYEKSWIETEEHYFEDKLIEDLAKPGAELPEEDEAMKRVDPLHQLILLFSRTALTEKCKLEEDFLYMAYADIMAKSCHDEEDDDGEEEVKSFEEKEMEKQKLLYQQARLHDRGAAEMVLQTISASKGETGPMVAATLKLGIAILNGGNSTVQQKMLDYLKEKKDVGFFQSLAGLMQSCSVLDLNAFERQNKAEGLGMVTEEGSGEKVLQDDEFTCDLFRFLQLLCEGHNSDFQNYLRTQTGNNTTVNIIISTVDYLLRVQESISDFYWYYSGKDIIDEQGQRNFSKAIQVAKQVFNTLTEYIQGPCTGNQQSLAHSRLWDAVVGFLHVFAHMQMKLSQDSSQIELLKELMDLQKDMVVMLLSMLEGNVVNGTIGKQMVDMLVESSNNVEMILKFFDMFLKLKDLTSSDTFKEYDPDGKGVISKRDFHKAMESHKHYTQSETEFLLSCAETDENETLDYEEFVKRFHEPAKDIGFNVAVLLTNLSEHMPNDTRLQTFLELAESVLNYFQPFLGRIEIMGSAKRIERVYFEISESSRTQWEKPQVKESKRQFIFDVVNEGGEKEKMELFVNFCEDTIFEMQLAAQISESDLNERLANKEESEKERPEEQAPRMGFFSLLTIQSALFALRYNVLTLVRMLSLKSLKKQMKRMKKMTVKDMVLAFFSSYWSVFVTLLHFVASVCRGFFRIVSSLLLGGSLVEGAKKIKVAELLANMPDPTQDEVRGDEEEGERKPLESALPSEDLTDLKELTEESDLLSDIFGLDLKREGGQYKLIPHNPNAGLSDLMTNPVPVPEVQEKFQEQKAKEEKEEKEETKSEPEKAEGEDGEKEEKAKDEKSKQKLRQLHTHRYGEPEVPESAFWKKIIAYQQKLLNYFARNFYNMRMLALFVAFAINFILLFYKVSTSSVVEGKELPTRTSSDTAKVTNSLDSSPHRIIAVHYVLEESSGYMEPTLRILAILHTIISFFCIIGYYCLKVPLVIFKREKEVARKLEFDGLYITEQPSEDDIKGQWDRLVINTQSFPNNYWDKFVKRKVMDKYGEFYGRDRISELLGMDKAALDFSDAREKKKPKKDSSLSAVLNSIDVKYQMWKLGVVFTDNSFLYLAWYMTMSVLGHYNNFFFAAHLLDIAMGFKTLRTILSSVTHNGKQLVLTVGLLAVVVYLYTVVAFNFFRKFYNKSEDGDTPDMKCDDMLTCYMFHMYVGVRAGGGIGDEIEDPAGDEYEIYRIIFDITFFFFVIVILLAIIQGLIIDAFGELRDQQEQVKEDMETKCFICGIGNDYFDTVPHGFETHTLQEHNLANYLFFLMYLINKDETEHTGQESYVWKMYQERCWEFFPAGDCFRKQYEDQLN
UniProt O70468: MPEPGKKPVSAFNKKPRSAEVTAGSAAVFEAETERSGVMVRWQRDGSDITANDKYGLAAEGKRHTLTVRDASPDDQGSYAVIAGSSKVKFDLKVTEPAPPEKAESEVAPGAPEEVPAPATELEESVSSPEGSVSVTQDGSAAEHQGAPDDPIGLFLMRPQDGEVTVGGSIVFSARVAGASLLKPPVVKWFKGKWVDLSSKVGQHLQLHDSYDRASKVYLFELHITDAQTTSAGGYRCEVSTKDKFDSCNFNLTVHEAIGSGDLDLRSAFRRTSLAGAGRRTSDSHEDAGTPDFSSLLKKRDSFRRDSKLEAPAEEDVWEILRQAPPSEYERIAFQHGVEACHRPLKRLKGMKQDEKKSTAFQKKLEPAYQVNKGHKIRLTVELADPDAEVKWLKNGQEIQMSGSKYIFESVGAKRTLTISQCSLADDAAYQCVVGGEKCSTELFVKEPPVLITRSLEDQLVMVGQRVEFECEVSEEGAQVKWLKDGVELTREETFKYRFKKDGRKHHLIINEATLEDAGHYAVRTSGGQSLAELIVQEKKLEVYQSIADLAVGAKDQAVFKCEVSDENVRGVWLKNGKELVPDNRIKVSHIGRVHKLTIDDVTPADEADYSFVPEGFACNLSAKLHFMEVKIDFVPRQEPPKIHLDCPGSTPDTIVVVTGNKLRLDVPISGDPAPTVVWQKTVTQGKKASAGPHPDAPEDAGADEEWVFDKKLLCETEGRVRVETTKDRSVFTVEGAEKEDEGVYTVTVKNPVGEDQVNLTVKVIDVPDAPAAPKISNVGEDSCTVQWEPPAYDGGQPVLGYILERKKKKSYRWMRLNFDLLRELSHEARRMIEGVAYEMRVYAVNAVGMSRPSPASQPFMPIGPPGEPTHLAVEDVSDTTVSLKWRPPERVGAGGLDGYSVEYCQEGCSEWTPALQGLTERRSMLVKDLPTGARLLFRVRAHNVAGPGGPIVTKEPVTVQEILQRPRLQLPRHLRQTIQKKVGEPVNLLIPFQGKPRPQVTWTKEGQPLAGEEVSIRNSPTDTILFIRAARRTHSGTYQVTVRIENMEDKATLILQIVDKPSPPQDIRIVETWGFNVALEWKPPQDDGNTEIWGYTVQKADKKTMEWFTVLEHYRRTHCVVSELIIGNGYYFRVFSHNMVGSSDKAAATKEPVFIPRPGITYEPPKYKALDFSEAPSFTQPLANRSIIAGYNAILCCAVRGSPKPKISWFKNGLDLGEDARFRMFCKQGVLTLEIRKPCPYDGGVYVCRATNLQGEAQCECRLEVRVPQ

Biological target: endogenous RYR2 of wild-type cardiomyocytes (mouse (control is MYBPC3 KO mice)) (UniProt E9Q401)
Experiment: proximity ligation assay in cardiomyocytes (FIGS. 2C and 2D)

- binding: binds
Substance: endogenous MYBPC3 of wild-type cardiomyocytes (from UniProt O70468 1-1270)
